# In PubChem BioAssay AID2283145 (EPA ToxCast):
# Sequences of proteins named here, by UniProt entry; tags and fusion partners are left off.
# UniProt Q00534, whole entry, looked up: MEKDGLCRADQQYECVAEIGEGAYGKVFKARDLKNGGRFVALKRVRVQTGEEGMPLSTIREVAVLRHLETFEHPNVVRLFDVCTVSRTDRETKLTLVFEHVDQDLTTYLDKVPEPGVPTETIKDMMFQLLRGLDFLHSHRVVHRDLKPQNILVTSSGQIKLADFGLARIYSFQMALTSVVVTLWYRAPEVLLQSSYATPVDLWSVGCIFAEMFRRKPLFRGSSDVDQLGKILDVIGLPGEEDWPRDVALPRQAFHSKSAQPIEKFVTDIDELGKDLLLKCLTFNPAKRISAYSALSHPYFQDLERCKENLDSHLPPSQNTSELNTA
# The list shows a part of the results, in another mix than the full data. Results filed as inconclusive are left out. The source made the active and inactive calls. The calls were made as follows: active = hit-call score of the fitted dose curve at least 0.9, where 1 is the maximum; inconclusive = response in the unintended direction; inactive = score below 0.9.
# Molecular target: human Cyclin-Dependent Kinase 6 (CDK6), CDK6 (gene 1021) (UniProt Q00534)
# Assay: NVS_ENZ_hCDK6: NovaScreen (NVS) Enzymatic Assay for human Cyclin-Dependent Kinase 6 (CDK6)
# Description: NVS_ENZ_hCDK6 is a biochemical, single-readout assay that uses extracted gene-proteins in a cell-free assay. Measurements were taken 1 hour after chemical dosing in a 384-well plate.NVS_ENZ_hCDK6 is one of one assay component(s) measured or calculated from the NVS_ENZ_hCDK6 assay. It is designed to make measurements of enzyme activity, a form of enzyme reporter, as detected with fluorescence intensity signals by Fluorescence and electrophoretic mobility shift technology.Data from the assay component NVS_ENZ_hCDK6 was analyzed into 1 assay endpoint. This assay endpoint, NVS_ENZ_hCDK6, was analyzed in the positive analysis fitting direction relative to DMSO as the negative control and baseline of activity. Using a type of enzyme reporter, loss-of-signal activity can be used to understand changes in the enzymatic activity as they relate to the gene CDK6. Furthermore, this assay endpoint can be referred to as a primary readout, because this assay has produced multiple assay endpoints where this one serves a enzymatic activity function. To generalize the intended target to other relatable targets, this assay endpoint is annotated to the kinase intended target family, where the subfamily is serine/threonine kinase. […]
row,Structure (SMILES),AC50
1,O=S(=O)(O)C(F)(F)C(F)(F)C(F)(F)C(F)(F)C(F)(F)C(F)(F)C(F)(F)C(F)(F)F,active: 18 µM
